These are yes or no findings as the source states them, for the method shown. For part of these data: Binding calls can cover weak binding; strength is not graded here.
Key:
[1] = target: Endogenous canine PD-L1 on K9TCC canine bladder cancer cells (K9TCC / K9TCC^nRFP) (canine); test: flow cytometry on K9TCC^nRFP cells stimulated with 50 ng/ml canine IFNγ for 12 hours
[2] = target: Endogenous canine PD-L1 on K9TCC canine bladder cancer cells (K9TCC / K9TCC^nRFP) (canine); test: flow cytometry on K9TCC cells stimulated with 50 ng/ml canine IFNγ for 12 hours
[3] = target: cPD-L2 protein (canine PD-L2) (canine); test: ELISA, bound Ab as OD450

B1: cPD-L1 12C10E4 chimeric antibody (mouse variable domains, canine IgG2 heavy and canine kappa light constant domains) (antibody, V domains shown)
VH: QVQLKQSGPGLVQPSQSLSITCTISGFSLTSFGVHWVRQSPGKGLEWLGVIWSGGSTDYNAAFTSRLSINKDNSKSQVFFKMNSLQADDTAIYYCARGGGPDWYFDVWGTGTTVTVSS
VL: DIVLTQSPASLAVSLGQRATISCRASESVEYYGTSLMQWYQQKPGQPPKLLIFAASNVKSGVPARFSGSGSGTDFSLNIHPVEEDDIAMYFCQQSGKVPHTFGGGTKLEIKR
**Q.** How did the binding [1] turn out when B1 was run?
**A.** binds

**Q.** And the binding [2]?
**A.** binds

**Q.** What about the binding [3] of the same binder?
**A.** no binding
